According to article PMC11078746 (Nature, 2024):
Several values for one entry are separate records, joined by “and”; a condition that tells them apart may be missing. Equal values may be shown once. Further values from the same series stand in other lists.

Experiment: Mouse body weight, SW48 xenograft study with HRO761
Assay type: in vivo
Experimental: All animal studies were conducted in accordance with ethics and procedures covered by permit BS-2275 and BS-1975 issued by the Kantonales Veterinäramt Basel-Stadt and in strict adherence to guidelines of the Eidgenössisches Tierschutzgesetz and the Eidgenössische Tierschutzverordnung, Switzerland. All animal studies were approved by the internal ethics committee. All animals had access to food and water ad libitum and were identified with transponders. They were housed in a specific-pathogen-free facility in IVC racks under a 12 h–12 h light–dark cycle. To establish cell-line-derived xenograft models, 6–7-week-old female athymic nude (Crl:NU(NCr)-Foxn1^nu) or SCID-BEIGE (CB17.Cg-PrkdcscidLystbg-J/Crl) mice from Charles River were engrafted subcutaneously with 5 million tumour cells in HBSS (H6648, Sigma-Aldrich). For SNU-407, Lovo, IM95, RL95.2, Ishikawa and IGROV-1, the cells were concentrated in 50% Matrigel (354234, Corning). Patient-derived xenografts were induced and expanded by transplantation as previously described. […] For the efficacy experiment, mice were randomized into groups (n = 5–6) for a mean tumour size of 100–150 mm^3. […] Blood samples were collected on day 7 and 91. […] Tumour responses are reported with the measures of tumour volumes from the treatment start. […] Animals were randomized (n = 3) and tumour samples were collected at 0, 1, 4, 8 and 24 h on the first day and then collected 4 h after the last treatment on day 3, 8, 10, 14 (including a 24 h timepoint), 17 and 21. Tumours were excised, weighed, either frozen in liquid nitrogen and cryogenic dry pulverized with the CryoPrep system (model CP-02, Covaris) or processed to FFPE after fixation. […] On day 12, blood samples were collected for PK analysis. On the last day (3 h after the last treatment), tumours were excised, weighed, frozen in liquid nitrogen and cryogenic dry pulverized for PD analysis.

SMILES: CCc1c(N2CCN(C(=O)c3ncnc(C)c3O)CC2)c(=O)n2nc(C3=CCOCC3)nc2n1CC(=O)Nc1ccc(C(F)(F)F)cc1Cl [HRO761]
- Delta BW change, individual mouse (HRO761 20mg/kg, day 17 post 1st dose, 20 mg/kg): 5.81% and 7.11% and -1.54% and -1.95% and 3.35%
- Delta BW change, individual mouse (HRO761 20mg/kg, day 21 post 1st dose, 20 mg/kg): 7.47% and 7.95% and 0% and 3.11% and 5.2%
- Delta BW change, individual mouse (HRO761 20mg/kg, day 24 post 1st dose, 20 mg/kg): 4.98% and 5.44% and -1.16% and 0.78% and 4.83%
- Delta BW change, individual mouse (HRO761 20mg/kg, day 28 post 1st dose, 20 mg/kg): 5.39% and 4.18% and -2.7% and 3.5% and 5.2%
- Delta BW change, individual mouse (HRO761 20mg/kg, day 31 post 1st dose, 20 mg/kg): 5.81% and 3.77% and -5.79% and 2.33% and 5.58%
- Delta BW change, individual mouse (HRO761 20mg/kg, day 35 post 1st dose, 20 mg/kg): 7.05% and 3.35% and -3.09% and 4.28% and 5.58%
- Delta BW change, individual mouse (HRO761 20mg/kg, day 38 post 1st dose, 20 mg/kg): 6.64% and 3.35% and -6.18% and 1.56% and 5.95%
- Delta BW change, individual mouse (HRO761 20mg/kg, day 42 post 1st dose, 20 mg/kg): 9.13% and 4.18% and -3.86% and 2.33% and 7.43%
- Delta BW change, individual mouse (HRO761 20mg/kg, day 45 post 1st dose, 20 mg/kg): 5.81% and 4.6% and -4.25% and 5.84% and 7.06%
- Delta BW change, individual mouse (HRO761 40mg/kg, day 17 post 1st dose, 40 mg/kg): 4.55% and 6.06% and -1.08% and 2.27% and 5.36%
- Delta BW change, individual mouse (HRO761 40mg/kg, day 21 post 1st dose, 40 mg/kg): 7.73% and 11.26% and -2.53% and 3.41% and 8.43%
- Delta BW change, individual mouse (HRO761 40mg/kg, day 24 post 1st dose, 40 mg/kg): 8.64% and 9.09% and 0.72% and 4.92% and 11.11%
- Delta BW change, individual mouse (HRO761 40mg/kg, day 28 post 1st dose, 40 mg/kg): 9.55% and 5.63% and 2.17% and 6.82% and 8.05%
- Delta BW change, individual mouse (HRO761 40mg/kg, day 31 post 1st dose, 40 mg/kg): 9.09% and 6.49% and 2.17% and 6.06% and 4.21%
- Delta BW change, individual mouse (HRO761 40mg/kg, day 35 post 1st dose, 40 mg/kg): 9.09% and 8.23% and 4.69% and 6.44% and 6.51%
- Delta BW change, individual mouse (HRO761 40mg/kg, day 38 post 1st dose, 40 mg/kg): 8.64% and 6.49% and 3.25% and 7.2% and 7.66%
- Delta BW change, individual mouse (HRO761 40mg/kg, day 42 post 1st dose, 40 mg/kg): 7.73% and 7.36% and 2.17% and 5.3% and 11.88%
- Delta BW change, individual mouse (HRO761 40mg/kg, day 45 post 1st dose, 40 mg/kg): 7.73% and 6.49% and 2.53% and 8.33% and 10.73%
- Delta BW change, individual mouse (HRO761 40mg/kg, day 49 post 1st dose, 40 mg/kg): 9.55% and 8.66% and 3.97% and 10.61% and 11.11%
- Delta BW change, individual mouse (HRO761 40mg/kg, day 52 post 1st dose, 40 mg/kg): 8.64% and 10.39% and 5.05% and 6.82% and 10.73%
- Delta BW change, individual mouse (HRO761 40mg/kg, day 56 post 1st dose, 40 mg/kg): 7.27% and 8.23% and 3.61% and 8.71% and 10.34%
- Delta BW change, individual mouse (HRO761 40mg/kg, day 59 post 1st dose, 40 mg/kg): 9.09% and 8.23% and 4.33% and 9.85% and 9.96%
- Delta BW change, individual mouse (HRO761 40mg/kg, day 63 post 1st dose, 40 mg/kg): 10.91% and 9.96% and 6.14% and 8.71% and 14.18%
- Delta BW change, individual mouse (HRO761 40mg/kg, day 66 post 1st dose, 40 mg/kg): 10% and 11.69% and 5.05% and 10.98% and 14.18%
- Delta BW change, individual mouse (HRO761 40mg/kg, day 70 post 1st dose, 40 mg/kg): 11.36% and 9.52% and 5.05% and 8.71% and 9.96%
- Delta BW change, individual mouse (HRO761 40mg/kg, day 73 post 1st dose, 40 mg/kg): 10% and 8.66% and 5.78% and 7.58% and 10.73%
- Delta BW change, individual mouse (HRO761 40mg/kg, day 76 post 1st dose, 40 mg/kg): 11.36% and 13.42% and 6.86% and 11.74% and 16.48%
- Delta BW change, individual mouse (HRO761 40mg/kg, day 79 post 1st dose, 40 mg/kg): 8.64% and 8.23% and 3.25% and 5.3% and 11.88%
- Delta BW change, individual mouse (HRO761 40mg/kg, day 83 post 1st dose, 40 mg/kg): 10% and 8.66% and 6.86% and 9.85% and 1.53%
- Delta BW change, individual mouse (HRO761 40mg/kg, day 86 post 1st dose, 40 mg/kg): 8.64% and 11.69% and 4.33% and 10.61% and 13.79%
- Delta BW change, individual mouse (HRO761 60mg/kg, day 17 post 1st dose, 60 mg/kg): 0.43% and -3.67% and 7.11% and -5.86% and 0.85%
- Delta BW change, individual mouse (HRO761 60mg/kg, day 21 post 1st dose, 60 mg/kg): 0.85% and -1.63% and 6.69% and -3.77% and 2.99%
- Delta BW change, individual mouse (HRO761 60mg/kg, day 24 post 1st dose, 60 mg/kg): 2.13% and 2.04% and 7.53% and -2.09% and 2.56%
- Delta BW change, individual mouse (HRO761 60mg/kg, day 28 post 1st dose, 60 mg/kg): 6.81% and 5.71% and 8.79% and 0.42% and 3.85%
- Delta BW change, individual mouse (HRO761 60mg/kg, day 31 post 1st dose, 60 mg/kg): 7.66% and 4.49% and 6.28% and 3.77% and 4.7%
- Delta BW change, individual mouse (HRO761 60mg/kg, day 35 post 1st dose, 60 mg/kg): 4.68% and 5.71% and 5.44% and 0.84% and 5.13%
- Delta BW change, individual mouse (HRO761 60mg/kg, day 38 post 1st dose, 60 mg/kg): 2.55% and 3.67% and 3.35% and -1.67% and 3.85%
- Delta BW change, individual mouse (HRO761 60mg/kg, day 42 post 1st dose, 60 mg/kg): 4.26% and 4.49% and 5.02% and -1.67% and 5.13%
- Delta BW change, individual mouse (HRO761 60mg/kg, day 45 post 1st dose, 60 mg/kg): 3.4% and 2.45% and 3.35% and -2.93% and 5.98%
- Delta BW change, individual mouse (HRO761 60mg/kg, day 49 post 1st dose, 60 mg/kg): 3.4% and 6.53% and 6.69% and -3.35% and 4.27%
- Delta BW change, individual mouse (HRO761 60mg/kg, day 52 post 1st dose, 60 mg/kg): 3.4% and 6.12% and 7.11% and -10.46% and 5.56%
- Delta BW change, individual mouse (HRO761 60mg/kg, day 56 post 1st dose, 60 mg/kg): 3.4% and 6.53% and 5.02% and -6.28% and 5.98%
- Delta BW change, individual mouse (HRO761 60mg/kg, day 59 post 1st dose, 60 mg/kg): 5.96% and 8.57% and 5.44% and -2.51% and 6.84%
- Delta BW change, individual mouse (HRO761 60mg/kg, day 63 post 1st dose, 60 mg/kg): 3.83% and 5.31% and 5.86% and -2.51% and 12.39%
- Delta BW change, individual mouse (HRO761 60mg/kg, day 66 post 1st dose, 60 mg/kg): 6.81% and 8.16% and 6.28% and -0.84% and 9.4%
- Delta BW change, individual mouse (HRO761 60mg/kg, day 70 post 1st dose, 60 mg/kg): 5.11% and 9.8% and 6.28% and -2.09% and 7.69%
- Delta BW change, individual mouse (HRO761 60mg/kg, day 73 post 1st dose, 60 mg/kg): 5.53% and 8.16% and 7.53% and -2.51% and 8.55%
- Delta BW change, individual mouse (HRO761 60mg/kg, day 76 post 1st dose, 60 mg/kg): 7.66% and 11.84% and 10.04% and -1.26% and 11.97%
- Delta BW change, individual mouse (HRO761 60mg/kg, day 79 post 1st dose, 60 mg/kg): 5.96% and 11.43% and 6.69% and -1.67% and 7.69%
- Delta BW change, individual mouse (HRO761 60mg/kg, day 83 post 1st dose, 60 mg/kg): 6.81% and 9.8% and 6.28% and 0.42% and 9.83%
- Delta BW change, individual mouse (HRO761 60mg/kg, day 86 post 1st dose, 60 mg/kg): 7.23% and 11.43% and 6.69% and 2.93% and 10.26%
- Delta BW change, individual mouse (HRO761 120mg/kg, day 17 post 1st dose, 120 mg/kg): 4.56% and 2.66% and -2.42% and 0.46% and 0.44%
- Delta BW change, individual mouse (HRO761 120mg/kg, day 21 post 1st dose, 120 mg/kg): 7.47% and 4.56% and 2.82% and 5.05% and 6.55%
- Delta BW change, individual mouse (HRO761 120mg/kg, day 24 post 1st dose, 120 mg/kg): 9.96% and 7.22% and 2.82% and 4.59% and 8.73%
- Delta BW change, individual mouse (HRO761 120mg/kg, day 28 post 1st dose, 120 mg/kg): 8.71% and 5.7% and 4.44% and 2.75% and 7.86%
- Delta BW change, individual mouse (HRO761 120mg/kg, day 31 post 1st dose, 120 mg/kg): 9.13% and 7.98% and 3.23% and 0.92% and 11.35%
- Delta BW change, individual mouse (HRO761 120mg/kg, day 35 post 1st dose, 120 mg/kg): 8.3% and 6.46% and 6.85% and 5.05% and 10.04%
- Delta BW change, individual mouse (HRO761 120mg/kg, day 38 post 1st dose, 120 mg/kg): 6.64% and 7.22% and 4.03% and 0% and 6.55%
- Delta BW change, individual mouse (HRO761 120mg/kg, day 42 post 1st dose, 120 mg/kg): 5.81% and 8.37% and 5.65% and 2.29% and 10.92%
- Delta BW change, individual mouse (HRO761 120mg/kg, day 45 post 1st dose, 120 mg/kg): 7.88% and 9.51% and 4.03% and 2.75% and 10.92%
- Delta BW change, individual mouse (HRO761 120mg/kg, day 49 post 1st dose, 120 mg/kg): 8.3% and 12.55% and 7.26% and 3.67% and 10.92%
- Delta BW change, individual mouse (HRO761 120mg/kg, day 52 post 1st dose, 120 mg/kg): 5.81% and 7.6% and 3.23% and 0% and 11.79%
- Delta BW change, individual mouse (HRO761 120mg/kg, day 56 post 1st dose, 120 mg/kg): 7.05% and 9.89% and 6.45% and 1.83% and 11.35%
- Delta BW change, individual mouse (HRO761 120mg/kg, day 59 post 1st dose, 120 mg/kg): 8.3% and 10.27% and 7.26% and 3.67% and 10.92%
- Delta BW change, individual mouse (HRO761 120mg/kg, day 63 post 1st dose, 120 mg/kg): 9.54% and 11.03% and 8.06% and 7.34% and 13.54%
- Delta BW change, individual mouse (HRO761 120mg/kg, day 66 post 1st dose, 120 mg/kg): 9.13% and 12.93% and 6.05% and 5.5% and 14.41%
- Delta BW change, individual mouse (HRO761 120mg/kg, day 70 post 1st dose, 120 mg/kg): 7.88% and 11.79% and 6.05% and 5.96% and 16.16%
- Delta BW change, individual mouse (HRO761 120mg/kg, day 73 post 1st dose, 120 mg/kg): 6.64% and 10.65% and 5.24% and 3.67% and 13.54%
- Delta BW change, individual mouse (HRO761 120mg/kg, day 76 post 1st dose, 120 mg/kg): 10.37% and 14.83% and 9.27% and 8.72% and 13.97%
- Delta BW change, individual mouse (HRO761 120mg/kg, day 79 post 1st dose, 120 mg/kg): 9.54% and 12.93% and 6.05% and 5.5% and 12.23%
- Delta BW change, individual mouse (HRO761 120mg/kg, day 83 post 1st dose, 120 mg/kg): 9.96% and 12.55% and 6.45% and 7.8% and 14.41%
- Delta BW change, individual mouse (HRO761 120mg/kg, day 86 post 1st dose, 120 mg/kg): 8.3% and 12.55% and 6.05% and 4.13% and 15.72%
